According to paper doi:10.1101/2024.01.30.577955:
Like-named read-outs stand apart in the source and are kept apart here. No constants are given. Whether binding was seen depends on the method and setting. Some binding calls cover weakened binding; strength is not graded here.

By UniProt entry, the sequences of proteins in these tests, tags left out.
UniProt Q96SY0: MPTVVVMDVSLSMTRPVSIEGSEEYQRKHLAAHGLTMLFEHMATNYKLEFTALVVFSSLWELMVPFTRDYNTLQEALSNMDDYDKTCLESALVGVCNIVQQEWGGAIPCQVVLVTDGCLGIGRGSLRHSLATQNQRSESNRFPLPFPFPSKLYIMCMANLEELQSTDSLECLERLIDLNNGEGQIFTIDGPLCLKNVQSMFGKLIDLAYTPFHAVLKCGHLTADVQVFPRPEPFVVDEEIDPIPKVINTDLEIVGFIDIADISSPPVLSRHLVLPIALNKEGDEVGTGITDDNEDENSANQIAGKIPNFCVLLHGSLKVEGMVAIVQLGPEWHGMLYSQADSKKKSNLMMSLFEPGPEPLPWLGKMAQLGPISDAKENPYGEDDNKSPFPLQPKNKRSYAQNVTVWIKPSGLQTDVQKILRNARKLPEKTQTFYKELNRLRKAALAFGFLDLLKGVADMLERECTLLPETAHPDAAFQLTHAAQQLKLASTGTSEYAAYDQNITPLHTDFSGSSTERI
UniProt Q9NVR2: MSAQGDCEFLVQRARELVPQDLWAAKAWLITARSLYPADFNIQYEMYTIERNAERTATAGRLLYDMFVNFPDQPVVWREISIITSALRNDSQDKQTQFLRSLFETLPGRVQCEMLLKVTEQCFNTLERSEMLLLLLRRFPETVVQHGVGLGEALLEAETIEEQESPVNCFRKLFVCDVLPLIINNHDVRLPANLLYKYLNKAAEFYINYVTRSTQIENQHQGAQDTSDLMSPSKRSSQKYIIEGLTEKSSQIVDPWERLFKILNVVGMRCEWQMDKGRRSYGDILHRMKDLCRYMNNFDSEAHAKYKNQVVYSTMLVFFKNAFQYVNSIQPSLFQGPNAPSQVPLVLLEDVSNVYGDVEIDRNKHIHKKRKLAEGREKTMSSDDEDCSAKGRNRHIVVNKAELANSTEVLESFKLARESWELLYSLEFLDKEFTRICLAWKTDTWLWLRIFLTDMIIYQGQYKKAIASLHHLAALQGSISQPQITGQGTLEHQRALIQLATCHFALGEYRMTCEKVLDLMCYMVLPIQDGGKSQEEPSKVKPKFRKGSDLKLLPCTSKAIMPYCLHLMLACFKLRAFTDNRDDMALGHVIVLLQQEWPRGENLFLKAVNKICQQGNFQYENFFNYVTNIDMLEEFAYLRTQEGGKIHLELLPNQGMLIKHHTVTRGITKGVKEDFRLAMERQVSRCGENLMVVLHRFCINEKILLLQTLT
UniProt Q9NVM9: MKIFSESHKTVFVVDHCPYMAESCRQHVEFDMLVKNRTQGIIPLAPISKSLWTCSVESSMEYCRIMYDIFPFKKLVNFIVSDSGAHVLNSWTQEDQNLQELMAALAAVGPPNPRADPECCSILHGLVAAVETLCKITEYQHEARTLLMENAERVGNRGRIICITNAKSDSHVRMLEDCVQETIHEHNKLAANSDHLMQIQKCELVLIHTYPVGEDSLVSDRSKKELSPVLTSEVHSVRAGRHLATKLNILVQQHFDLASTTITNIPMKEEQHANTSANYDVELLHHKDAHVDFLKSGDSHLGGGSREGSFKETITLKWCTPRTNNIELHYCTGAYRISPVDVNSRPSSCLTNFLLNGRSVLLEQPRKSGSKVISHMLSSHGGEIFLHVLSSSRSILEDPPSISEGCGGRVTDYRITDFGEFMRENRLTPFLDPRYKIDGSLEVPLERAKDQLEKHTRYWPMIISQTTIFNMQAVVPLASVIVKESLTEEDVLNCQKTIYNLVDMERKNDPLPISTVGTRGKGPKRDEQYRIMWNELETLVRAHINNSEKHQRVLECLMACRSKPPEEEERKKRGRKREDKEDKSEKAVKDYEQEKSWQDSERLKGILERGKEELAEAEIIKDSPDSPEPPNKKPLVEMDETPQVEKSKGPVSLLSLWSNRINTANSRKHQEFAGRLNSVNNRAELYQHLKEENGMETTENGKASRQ
UniProt Q96N11: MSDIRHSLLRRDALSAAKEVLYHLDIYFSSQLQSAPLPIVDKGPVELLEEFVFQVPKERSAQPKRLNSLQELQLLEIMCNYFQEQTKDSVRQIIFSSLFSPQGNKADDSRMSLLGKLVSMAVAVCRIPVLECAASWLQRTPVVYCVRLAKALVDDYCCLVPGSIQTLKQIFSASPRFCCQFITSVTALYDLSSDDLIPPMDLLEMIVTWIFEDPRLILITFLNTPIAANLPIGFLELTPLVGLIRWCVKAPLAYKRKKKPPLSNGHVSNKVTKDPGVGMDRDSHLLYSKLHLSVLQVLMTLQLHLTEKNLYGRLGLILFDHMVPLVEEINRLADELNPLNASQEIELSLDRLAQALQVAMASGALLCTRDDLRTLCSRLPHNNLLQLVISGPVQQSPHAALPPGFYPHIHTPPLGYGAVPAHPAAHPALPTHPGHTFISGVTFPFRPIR

Key:
Assay in all cases: cryo-EM structure
INTS14 = INTS14 (UniProt Q96SY0)
INTS10 [1] = molecular target: INTS10 (UniProt Q9NVR2)
INTS10 [2] = molecular target: INTS10 (UniProt Q9NVR2); remark: listed apart in the source

| Substance | binding (INTS14) | binding (INTS10 [1]) | binding (INTS10 [2]) |
| --- | --- | --- | --- |
| INTS13 (from UniProt Q9NVM9 1-706) | binds | – | – |
| INTS15 (from UniProt Q96N11 1-449) | – | binds | binds |
